Measurements reported in paper PMC3917433.
These are yes or no findings as the source states them, for the method shown. Some binding calls cover weakened binding; strength is not graded here.

Chains of the proteins cited; added tags and fusions are not shown. Lines headed by an entry give the natural chain unless they say otherwise; changes in a name come on top. A line that says so, or that is headed by a name, gives the form on record, which may keep a tag or linker.
UniProt P98175: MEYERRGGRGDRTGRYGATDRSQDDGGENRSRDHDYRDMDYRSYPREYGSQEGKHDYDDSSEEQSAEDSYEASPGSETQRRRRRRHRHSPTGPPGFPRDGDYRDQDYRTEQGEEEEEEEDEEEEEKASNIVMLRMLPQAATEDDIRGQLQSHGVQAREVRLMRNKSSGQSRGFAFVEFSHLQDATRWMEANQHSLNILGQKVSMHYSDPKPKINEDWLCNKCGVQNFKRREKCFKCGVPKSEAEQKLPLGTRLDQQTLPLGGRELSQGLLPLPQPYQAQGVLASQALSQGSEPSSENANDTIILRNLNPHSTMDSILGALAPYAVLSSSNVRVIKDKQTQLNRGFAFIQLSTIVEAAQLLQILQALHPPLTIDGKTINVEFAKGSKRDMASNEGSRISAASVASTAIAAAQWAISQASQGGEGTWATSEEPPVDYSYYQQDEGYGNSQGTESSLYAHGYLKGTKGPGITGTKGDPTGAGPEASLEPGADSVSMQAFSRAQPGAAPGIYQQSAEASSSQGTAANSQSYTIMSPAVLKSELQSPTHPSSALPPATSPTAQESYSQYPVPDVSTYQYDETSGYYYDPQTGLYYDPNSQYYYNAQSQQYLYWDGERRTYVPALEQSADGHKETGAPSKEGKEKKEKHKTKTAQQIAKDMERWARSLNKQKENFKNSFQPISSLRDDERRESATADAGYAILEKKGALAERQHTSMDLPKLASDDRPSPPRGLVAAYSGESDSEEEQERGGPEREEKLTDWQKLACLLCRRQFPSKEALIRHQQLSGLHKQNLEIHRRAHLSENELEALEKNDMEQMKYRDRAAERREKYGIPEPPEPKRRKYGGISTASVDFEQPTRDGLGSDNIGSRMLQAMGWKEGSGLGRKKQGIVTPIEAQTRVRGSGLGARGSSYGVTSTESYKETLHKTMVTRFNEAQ
UniProt Q99962: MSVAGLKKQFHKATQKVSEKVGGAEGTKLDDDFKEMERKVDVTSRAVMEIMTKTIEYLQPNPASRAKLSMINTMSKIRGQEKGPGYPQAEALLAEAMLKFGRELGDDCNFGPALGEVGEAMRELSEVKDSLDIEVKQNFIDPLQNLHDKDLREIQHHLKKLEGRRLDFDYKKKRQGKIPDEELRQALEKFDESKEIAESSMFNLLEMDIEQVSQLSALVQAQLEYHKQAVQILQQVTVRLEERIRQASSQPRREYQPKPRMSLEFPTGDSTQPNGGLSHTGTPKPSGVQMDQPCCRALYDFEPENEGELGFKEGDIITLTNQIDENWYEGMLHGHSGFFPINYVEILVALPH
UniProt Q92551: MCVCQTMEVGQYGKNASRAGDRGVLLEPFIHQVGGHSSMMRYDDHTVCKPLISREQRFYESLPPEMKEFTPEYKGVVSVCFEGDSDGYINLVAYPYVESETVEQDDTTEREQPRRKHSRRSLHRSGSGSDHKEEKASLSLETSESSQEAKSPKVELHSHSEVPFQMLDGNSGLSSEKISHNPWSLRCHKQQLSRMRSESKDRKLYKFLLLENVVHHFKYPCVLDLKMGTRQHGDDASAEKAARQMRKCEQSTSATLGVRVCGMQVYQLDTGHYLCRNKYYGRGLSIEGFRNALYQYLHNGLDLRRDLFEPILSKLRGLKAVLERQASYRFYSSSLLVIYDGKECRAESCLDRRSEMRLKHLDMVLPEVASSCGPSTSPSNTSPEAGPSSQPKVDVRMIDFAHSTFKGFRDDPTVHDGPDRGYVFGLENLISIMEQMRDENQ
Meis homeobox 2 (MEIS2) (O14770, form named): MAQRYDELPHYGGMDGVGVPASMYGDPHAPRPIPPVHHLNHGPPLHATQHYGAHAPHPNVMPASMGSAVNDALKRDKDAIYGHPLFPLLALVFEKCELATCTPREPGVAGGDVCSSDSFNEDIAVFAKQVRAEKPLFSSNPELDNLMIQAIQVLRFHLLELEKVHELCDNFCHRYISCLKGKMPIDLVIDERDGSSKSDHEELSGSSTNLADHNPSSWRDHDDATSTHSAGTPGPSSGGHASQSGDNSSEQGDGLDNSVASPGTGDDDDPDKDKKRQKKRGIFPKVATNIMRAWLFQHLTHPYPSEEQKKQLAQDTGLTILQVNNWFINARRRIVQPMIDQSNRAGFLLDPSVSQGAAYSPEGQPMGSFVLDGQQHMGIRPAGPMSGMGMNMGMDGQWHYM
UniProt Q99700: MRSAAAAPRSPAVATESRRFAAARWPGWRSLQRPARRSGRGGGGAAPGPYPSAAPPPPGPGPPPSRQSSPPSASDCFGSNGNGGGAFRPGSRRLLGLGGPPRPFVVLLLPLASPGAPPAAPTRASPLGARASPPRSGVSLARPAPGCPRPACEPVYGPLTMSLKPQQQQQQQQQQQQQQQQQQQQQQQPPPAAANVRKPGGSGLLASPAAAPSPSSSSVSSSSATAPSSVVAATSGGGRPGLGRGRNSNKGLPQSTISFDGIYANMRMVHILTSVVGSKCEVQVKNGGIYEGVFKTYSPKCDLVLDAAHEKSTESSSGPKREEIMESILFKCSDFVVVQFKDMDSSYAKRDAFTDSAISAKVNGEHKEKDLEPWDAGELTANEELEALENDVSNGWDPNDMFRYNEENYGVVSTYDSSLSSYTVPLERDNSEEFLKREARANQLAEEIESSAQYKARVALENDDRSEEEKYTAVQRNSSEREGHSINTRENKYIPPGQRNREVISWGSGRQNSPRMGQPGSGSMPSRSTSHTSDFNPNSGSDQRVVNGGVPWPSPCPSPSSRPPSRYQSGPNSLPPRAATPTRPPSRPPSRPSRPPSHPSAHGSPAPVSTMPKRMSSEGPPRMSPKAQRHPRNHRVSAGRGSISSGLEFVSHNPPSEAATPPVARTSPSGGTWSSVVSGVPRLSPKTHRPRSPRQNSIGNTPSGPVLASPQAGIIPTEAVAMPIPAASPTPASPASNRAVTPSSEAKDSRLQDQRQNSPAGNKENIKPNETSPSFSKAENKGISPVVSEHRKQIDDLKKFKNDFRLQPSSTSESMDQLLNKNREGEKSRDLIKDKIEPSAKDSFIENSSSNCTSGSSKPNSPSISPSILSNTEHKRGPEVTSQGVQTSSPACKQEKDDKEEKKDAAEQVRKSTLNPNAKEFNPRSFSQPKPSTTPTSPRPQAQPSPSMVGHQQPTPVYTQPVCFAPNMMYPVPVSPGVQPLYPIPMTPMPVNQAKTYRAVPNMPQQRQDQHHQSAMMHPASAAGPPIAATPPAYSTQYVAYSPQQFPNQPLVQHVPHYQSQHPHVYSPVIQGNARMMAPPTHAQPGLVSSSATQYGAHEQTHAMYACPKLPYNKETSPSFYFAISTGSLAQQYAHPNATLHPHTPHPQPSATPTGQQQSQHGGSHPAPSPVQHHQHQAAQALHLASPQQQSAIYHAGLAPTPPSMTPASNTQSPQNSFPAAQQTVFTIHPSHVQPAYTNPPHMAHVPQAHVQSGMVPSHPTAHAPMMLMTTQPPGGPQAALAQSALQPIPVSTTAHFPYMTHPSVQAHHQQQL
UniProt Q96PV7: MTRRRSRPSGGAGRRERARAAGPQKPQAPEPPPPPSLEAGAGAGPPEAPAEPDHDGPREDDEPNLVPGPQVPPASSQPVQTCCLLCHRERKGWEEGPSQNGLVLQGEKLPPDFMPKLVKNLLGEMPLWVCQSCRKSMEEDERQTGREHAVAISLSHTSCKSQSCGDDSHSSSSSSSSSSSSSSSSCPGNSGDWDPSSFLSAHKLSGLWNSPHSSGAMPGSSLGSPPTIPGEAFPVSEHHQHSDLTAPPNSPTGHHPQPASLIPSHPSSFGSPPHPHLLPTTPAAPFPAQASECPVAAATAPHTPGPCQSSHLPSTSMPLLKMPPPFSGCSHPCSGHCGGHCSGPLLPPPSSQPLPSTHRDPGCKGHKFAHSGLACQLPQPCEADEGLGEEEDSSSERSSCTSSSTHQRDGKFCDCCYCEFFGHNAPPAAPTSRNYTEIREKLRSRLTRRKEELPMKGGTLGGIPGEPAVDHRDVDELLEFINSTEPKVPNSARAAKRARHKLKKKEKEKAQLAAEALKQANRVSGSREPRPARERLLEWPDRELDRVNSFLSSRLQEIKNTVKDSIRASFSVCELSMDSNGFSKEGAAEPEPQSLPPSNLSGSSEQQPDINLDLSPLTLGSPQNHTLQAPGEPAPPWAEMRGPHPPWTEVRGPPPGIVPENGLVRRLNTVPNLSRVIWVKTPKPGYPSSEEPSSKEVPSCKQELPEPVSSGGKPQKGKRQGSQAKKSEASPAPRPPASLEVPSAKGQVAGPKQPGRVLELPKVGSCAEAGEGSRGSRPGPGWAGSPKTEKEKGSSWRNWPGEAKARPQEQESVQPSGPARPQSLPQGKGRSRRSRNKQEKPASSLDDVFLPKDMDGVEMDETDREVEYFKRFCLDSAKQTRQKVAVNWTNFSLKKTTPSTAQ
UniProt P50225: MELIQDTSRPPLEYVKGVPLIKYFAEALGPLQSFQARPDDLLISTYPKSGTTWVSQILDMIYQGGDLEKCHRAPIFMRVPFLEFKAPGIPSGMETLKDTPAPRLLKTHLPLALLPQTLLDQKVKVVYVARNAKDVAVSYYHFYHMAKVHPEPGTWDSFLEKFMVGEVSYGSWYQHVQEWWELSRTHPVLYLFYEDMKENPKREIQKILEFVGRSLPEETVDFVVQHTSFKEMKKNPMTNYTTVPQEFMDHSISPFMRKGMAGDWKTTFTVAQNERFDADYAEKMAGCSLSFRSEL
UniProt P13202: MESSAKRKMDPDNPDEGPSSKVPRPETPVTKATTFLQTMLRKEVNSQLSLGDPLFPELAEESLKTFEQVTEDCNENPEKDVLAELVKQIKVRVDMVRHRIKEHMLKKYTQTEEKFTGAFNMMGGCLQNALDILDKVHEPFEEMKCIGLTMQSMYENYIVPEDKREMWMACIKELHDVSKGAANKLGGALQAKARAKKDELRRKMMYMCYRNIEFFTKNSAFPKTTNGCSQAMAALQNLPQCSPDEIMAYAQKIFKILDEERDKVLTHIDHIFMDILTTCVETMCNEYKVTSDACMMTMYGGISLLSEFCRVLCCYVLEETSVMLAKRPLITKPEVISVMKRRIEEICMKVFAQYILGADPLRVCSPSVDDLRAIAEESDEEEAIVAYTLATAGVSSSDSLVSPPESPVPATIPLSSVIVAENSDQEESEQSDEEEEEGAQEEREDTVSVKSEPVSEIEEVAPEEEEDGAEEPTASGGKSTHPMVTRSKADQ

Columns and labels:
Assay in all cases: peptide or protein array; only the binder purified
[1] = target: RNA binding motif protein 10 (RBM10) (human) (UniProt P98175)
[2] = target: T1, Immediate-early response 2 (human) (UniProt Q9BTL4)
T1 sequence: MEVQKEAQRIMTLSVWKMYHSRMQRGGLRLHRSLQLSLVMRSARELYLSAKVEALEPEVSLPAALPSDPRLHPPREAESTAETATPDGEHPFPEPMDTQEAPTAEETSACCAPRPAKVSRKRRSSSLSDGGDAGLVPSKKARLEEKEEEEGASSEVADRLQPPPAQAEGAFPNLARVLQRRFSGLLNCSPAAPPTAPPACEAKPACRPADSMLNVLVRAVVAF

Tensin 3 (TNS3) (human) = target: T2, Tensin 3 (TNS3) (human) (UniProt Q68CZ2)
T2 sequence: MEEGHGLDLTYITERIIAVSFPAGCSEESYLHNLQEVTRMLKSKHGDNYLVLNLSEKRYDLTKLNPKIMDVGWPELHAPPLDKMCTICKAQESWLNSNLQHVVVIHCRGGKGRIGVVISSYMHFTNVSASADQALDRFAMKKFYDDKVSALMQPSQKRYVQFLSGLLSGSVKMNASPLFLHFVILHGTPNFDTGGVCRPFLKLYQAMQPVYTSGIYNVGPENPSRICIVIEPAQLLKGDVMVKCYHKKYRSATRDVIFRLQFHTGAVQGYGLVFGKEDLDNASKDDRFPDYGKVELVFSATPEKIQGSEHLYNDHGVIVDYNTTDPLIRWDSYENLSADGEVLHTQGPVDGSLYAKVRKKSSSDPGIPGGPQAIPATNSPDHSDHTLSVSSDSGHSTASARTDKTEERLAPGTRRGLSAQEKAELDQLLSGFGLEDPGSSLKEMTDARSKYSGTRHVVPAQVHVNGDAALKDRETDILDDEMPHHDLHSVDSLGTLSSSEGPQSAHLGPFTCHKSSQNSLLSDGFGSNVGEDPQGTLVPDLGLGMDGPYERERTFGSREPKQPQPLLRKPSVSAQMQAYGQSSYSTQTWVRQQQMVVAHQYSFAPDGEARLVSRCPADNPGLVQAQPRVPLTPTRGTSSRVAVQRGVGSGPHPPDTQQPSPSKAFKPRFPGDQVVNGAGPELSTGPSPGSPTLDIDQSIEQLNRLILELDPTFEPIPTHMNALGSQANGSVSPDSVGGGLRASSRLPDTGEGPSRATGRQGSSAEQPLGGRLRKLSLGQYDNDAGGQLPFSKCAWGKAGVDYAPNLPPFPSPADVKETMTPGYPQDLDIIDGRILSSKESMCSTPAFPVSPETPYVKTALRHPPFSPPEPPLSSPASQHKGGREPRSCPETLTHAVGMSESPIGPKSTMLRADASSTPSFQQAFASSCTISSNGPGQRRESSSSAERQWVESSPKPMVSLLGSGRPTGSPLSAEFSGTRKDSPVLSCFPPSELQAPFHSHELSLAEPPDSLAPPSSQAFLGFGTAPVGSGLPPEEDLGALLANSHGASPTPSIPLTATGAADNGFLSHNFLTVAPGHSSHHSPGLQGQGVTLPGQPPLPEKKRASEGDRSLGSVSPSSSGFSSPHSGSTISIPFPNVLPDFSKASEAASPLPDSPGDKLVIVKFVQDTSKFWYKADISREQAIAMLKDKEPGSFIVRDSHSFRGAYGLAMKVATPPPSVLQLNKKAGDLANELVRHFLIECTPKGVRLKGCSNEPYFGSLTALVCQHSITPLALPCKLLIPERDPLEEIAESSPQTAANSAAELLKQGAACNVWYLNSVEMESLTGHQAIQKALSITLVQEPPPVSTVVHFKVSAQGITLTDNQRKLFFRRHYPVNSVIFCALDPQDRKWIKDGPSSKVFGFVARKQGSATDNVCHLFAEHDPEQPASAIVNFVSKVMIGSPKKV

[3] = target: SH3-domain GRB2-like 2 (SH3GL2) (human) (UniProt Q99962)
[4] = target: Inositol hexaphosphate kinase 1 (IHPK1) (human) (UniProt Q92551)
[5] = target: Meis homeobox 2 (MEIS2) (human) (UniProt O14770)
Ataxin 2 (ATXN2) (human) = Ataxin 2 (ATXN2) (human) (UniProt Q99700)
KIAA1931 protein (human) = KIAA1931 protein (human) (UniProt Q96PV7)
[6] = target: Phenol-sulfating phenol sulfotransferase 1 (human) (UniProt P50225)
[7] = target: Adenomatosis polyposis coli (APC) (human) (UniProt P25054)
[8] = target: T3, Intersex-like protein (human) (UniProt Q9NX70)
T3 sequence: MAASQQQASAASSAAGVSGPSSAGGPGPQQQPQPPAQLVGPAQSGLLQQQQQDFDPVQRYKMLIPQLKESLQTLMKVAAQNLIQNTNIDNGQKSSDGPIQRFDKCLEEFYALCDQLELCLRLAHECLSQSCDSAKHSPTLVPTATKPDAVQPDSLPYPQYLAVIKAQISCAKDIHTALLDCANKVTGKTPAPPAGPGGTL

Measured: binding

Human cytomegalovirus immediate-early protein 1 (from UniProt P13202 1-491)
binds: [1] | [2] | Tensin 3 (TNS3) (human) | [3] | [4] | [5] | Ataxin 2 (ATXN2) (human) | KIAA1931 protein (human) | [6] | [7] | [8]
